The experiment can be described thus: qHTS Assay for Lipid Storage Modulators in Drosophila S3 Cells.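 On cell number change: cells counted by Cell Tracker Red CMTPX staining in the red channel.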 The settings on record: BODIPY lipid droplet fluorescence, 18-24 h; for cell number change: measured here: cell count max response, cells fed with added oleic acid. The procedure, abridged: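 Laser-scanning cytometry quantifies lipid droplet accumulation (500–530 nm total intensity; droplet/cell object ratio) in oleic acid-fed (400 uM added) Drosophila S3 cells treated with a concentration series. 20 uM Triacsin C defined 100% inhibition.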

[1] abbreviates: measured here: lipid fluorescence (Fed channel) AC50, cells fed with added oleic acid.
Setting [2] is: measured here: cell number channel AC50, cells fed with added oleic acid.

This is one part of the list. Shown are side measurements of this screen, not its main read-out; they come without a call. Most of these compounds were active or inconclusive in the main read-out, so they are no random draw. Potencies come from curve fits of mixed quality, noted in brackets.

Turning to `CCOc1ccc(N=CNc2ccc(OCC)cc2)cc1`, the cell number change amounted to 1.42%. In addition, under setting [1], the concentration at half-maximal activity (AC50) was 6.51 µM [rising, single point].

Take `NCCCCCc1nnc(SCC(N)=O)o1`: the cell number change was -67.7%. Besides, the half-maximal activity concentration (AC50) under setting [2] was 29.1 µM [falling, single point]. The AC50 under setting [1] was 29.1 µM [falling, single point].

With `COc1cc(NC(=O)c2cccc3c2C(=O)N(Cc2cccnc2)C3)cc(OC)c1OC`, the cell number change was determined as 7.22%. In addition, the concentration at half-maximal activity (AC50) under setting [1] is 0.231 µM [rising, full curve, poor fit].

`COC(=O)c1ccc(Oc2c(C(F)(F)F)oc3c(CN4CCN(C)CC4)c(O)ccc3c2=O)cc1`: the cell number change was -12.4%. Under setting [2], the AC50 is 0.461 µM [falling, partial curve, poor fit]. In addition, the concentration at half-maximal activity (AC50) under setting [1] is 0.259 µM [falling, full curve, poor fit].

`CCCNc1c(NS(=O)(=O)c2ccc(C)cc2C)c(=O)oc2ccccc12`: the cell number change is -19.5%. For the same compound, the AC50 under setting [2] is 2.59 µM [falling, single point]. Moreover, the AC50 under setting [1] is 18.4 µM [rising, single point].

For the compound `Cc1cc(C)c2c(N)c(C(=O)NCC3CCCCC3)sc2n1`, the cell number change is 34.1%. The half-maximal activity concentration (AC50) under setting [2] was 0.058 µM [rising, full curve]. Further, the concentration at half-maximal activity (AC50) under setting [1] is 0.651 µM [rising, partial curve].

For `COc1ccc(NC(=O)CC2SC(=NCC3CCCO3)NC2=O)cc1` (stereo not drawn), the cell number change is 5.19%. Under setting [1], the AC50 is 16.4 µM [rising, partial curve, poor fit].

In the case of `O=C(Nc1ccccc1N1CCCC1)c1ccc([N+](=O)[O-])o1`, the cell number change is -41.6%. Under setting [2], the AC50 was 7.31 µM [falling, full curve]. Under setting [1], the concentration at half-maximal activity (AC50) is 3.26 µM [falling, partial curve].

On to `Cc1cc(C)c(NC(=O)Cn2nnc(C(=O)NCCc3ccccc3)c2N)c(C)c1`, for which the cell number change is 20.9%.

`COc1cc([C@@H]2Oc3cc(C4Oc5cc(O)cc(O)c5C(=O)[C@H]4O)ccc3O[C@H]2CO)ccc1O` (stereo partly drawn): the cell number change stood at 6.7%.

For `CCN(CC)S(=O)(=O)c1cccc(C(=O)N/N=C(\C)c2ccc(O)cc2O)c1`, the cell number change was -32%. The AC50 under setting [2] was 29.1 µM [falling, single point]. Moreover, the concentration at half-maximal activity (AC50) under setting [1] was 29.1 µM [falling, single point].

For `O=C(/C=C/c1cccs1)c1cc(Cl)ccc1OC(=O)N1CCOCC1`, under setting [1], the AC50 is 29.1 µM [falling, partial curve].

For `O=C(N/N=C/c1ccc2c(c1)OCO2)c1ccc2c(c1)OCCO2`, the cell number change was 39.1%. Further, the AC50 under setting [2] is 0.13 µM [rising, full curve, poor fit]. In addition, the concentration at half-maximal activity (AC50) under setting [1] was 0.00517 µM [rising, full curve, poor fit].

For `CC(=O)C(=Nc1ccc(Cl)cc1Cl)NNc1cccc(Cl)c1`, the cell number change was -26%. The AC50 under setting [2] was 3.66 µM [rising, single point]. Also, under setting [1], the AC50 was 6.51 µM [rising, single point].

Regarding `Cn1c(C2CCCN2C(=O)OC(C)(C)C)n[nH]c1=S` (stereo not drawn), the cell number change turned out to be 8.97%. Further, the AC50 under setting [1] is 0.146 µM [rising, single point].

Consider `Cc1cccc(C(=O)N2CCC(Cc3ccccc3)CC2)c1[N+](=O)[O-]`, for which the cell number change was determined as 75.7%. Moreover, the AC50 under setting [2] is 29.1 µM [rising, single point].

For the compound `Cc1cccc(Nc2ncnc3ccc(Br)cc23)c1`, the cell number change was -7.17%. Also, the concentration at half-maximal activity (AC50) under setting [1] is 0.259 µM [rising, partial curve].

For `CCOc1cc(N2CCOCC2)c(OCC)cc1NC(=O)c1cccc(N(C)C)c1`, the cell number change amounted to 37.4%. The half-maximal activity concentration (AC50) under setting [2] is 18.4 µM [rising, single point]. The half-maximal activity concentration (AC50) under setting [1] was 8.2 µM [rising, partial curve, poor fit].

Regarding `CC(C)(C)C(=O)Nc1ccccc1N1CCN(C(=O)c2ccc(Cl)cc2)CC1`, the cell number change was determined as 178%. Also, under setting [2], the AC50 is 18.4 µM [rising, partial curve]. In addition, the AC50 under setting [1] was 14.6 µM [rising, partial curve].

`Cc1ccc(NC(=O)c2cnn(-c3ccccc3)c2NC(=O)c2ccco2)cc1C`: the cell number change is -1.05%. Moreover, under setting [1], the AC50 is 0.651 µM [falling, full curve].

As for `Cc1ccc(OCCN(C)C(=O)C2CCC(=O)N(CCCN3CCOCC3)C2)cc1` (stereo not drawn), the cell number change is -2.97%. Besides, the AC50 under setting [1] is 29.1 µM [rising, single point].

`CC(C)(CO)CNC1CCCN(C2Cc3ccccc3C2)C1` (stereo not drawn): the cell number change worked out at 0.246%.

As for `COc1ccc(CCn2c(Br)nc3c2c(=O)[nH]c(=O)n3C)cc1`, the cell number change is -8.23%.

With `Cc1cccc(OCC(=O)NNC(=O)CSc2ncc(C#N)c(N)n2)c1`, the cell number change was 12.9%.

In the case of `CC(c1ccco1)N(C(=O)Nc1ccccc1)C1CCCCC1` (stereo not drawn), the cell number change was -25%. Under setting [2], the half-maximal activity concentration (AC50) was 0.0058 µM [falling, full curve, poor fit]. The AC50 under setting [1] was 23.1 µM [falling, partial curve].

Consider `CCn1nc(NS(=O)(=O)c2cccc3nonc23)c2cc3ccc(C)cc3nc21`, for which the cell number change came out at 30.1%. For the same compound, under setting [2], the AC50 is 2.59 µM [rising, partial curve].

On to `CCC(C)Sc1ccc([C@@H]2[C@@H]3C(=O)N(C)C(=O)[C@@H]3[C@]3(C(=O)OC)CCCCN23)cc1OC` (stereo partly drawn), for which the cell number change is -15.2%. For the same compound, under setting [1], the AC50 was 8.2 µM [falling, partial curve].

As for `CC(NC(=O)CN(Cc1ccccc1)S(=O)(=O)c1ccccc1)c1cccnc1` (stereo not drawn), the cell number change came to 2.53%. Moreover, under setting [1], the half-maximal activity concentration (AC50) is 0.013 µM [rising, full curve, poor fit].

With `O=C(Cn1cc(C(=S)N2CCOCC2)c2ccccc21)N1CCOCC1`, the cell number change is -29.7%. In addition, the AC50 under setting [2] is 1.64 µM [falling, full curve, poor fit]. The AC50 under setting [1] was 6.51 µM [falling, partial curve, poor fit].

For the compound `Cc1ccc(-c2n[nH]c(=S)n2Cc2ccccc2)cc1`, the AC50 under setting [2] was 1.3 µM [rising, full curve, poor fit].

For `CN(N)C(=S)Nc1ccc(Cl)cc1`, the cell number change was 39.4%. Further, under setting [2], the AC50 was 0.00461 µM [rising, full curve, poor fit].

For the compound `Cc1c(Cl)cccc1NC(=O)NCc1ccc(C)n1C`, the cell number change is 14.1%. Besides, the concentration at half-maximal activity (AC50) under setting [1] was 0.184 µM [rising, full curve, poor fit].

Consider `NNC(=O)c1csc(CS(=O)(=O)c2ccc(Cl)cc2)n1`, for which the half-maximal activity concentration (AC50) under setting [1] is 29.1 µM [rising, single point].

For the compound `CCCCN(C(=O)C1=COCCO1)c1c(N)n(CCC)c(=O)[nH]c1=O`, the half-maximal activity concentration (AC50) under setting [1] is 29.1 µM [rising, single point].

With `COc1ccccc1OCc1ccc(C(=O)NCC(C)C)o1`, the cell number change is 18.6%.

Turning to `COCC(C)n1c(SCc2nc3ccccc3c(=O)[nH]2)nc2ccccc2c1=O` (stereo not drawn), the cell number change was -6.15%.

Regarding `COc1ccc(N(C(=O)CNC(=O)c2ccco2)C(C(=O)NC2CCCC2)c2ccc(C)o2)cc1` (stereo not drawn), the cell number change amounted to 6.67%.

As for `Cc1nn(Cc2ccccc2Cl)c(C)c1NC(=O)CCCn1nc([N+](=O)[O-])c(Cl)c1C`, the cell number change was -0.151%.

In the case of `CC(C)c1ccc(NC(=O)C2CC(=O)N(C3CCCC3)C2)cc1` (stereo not drawn), the cell number change amounted to 0.84%.

Take `O=C(CCNC(=O)c1ccccc1Cl)Nc1ccc(Br)c(C(F)(F)F)c1`: the cell number change was determined as 22.7%. In addition, the AC50 under setting [1] was 10.3 µM [rising, partial curve].

For the compound `O=C(c1cccc(S(=O)(=O)N2CCCCC2)c1)N1CCOCC1`, the cell number change is -8.02%.

Take `CCOc1nc(NCc2ccco2)nc(Nc2ccccc2F)n1`: the cell number change was -59.1%. Also, the concentration at half-maximal activity (AC50) under setting [2] was 20.6 µM [falling, partial curve, poor fit]. Also, the half-maximal activity concentration (AC50) under setting [1] is 29.1 µM [falling, partial curve, poor fit].

With `O=C(Nc1nc(N2C(=O)c3ccccc3C2=O)n(-c2ccccc2)n1)c1ccc(F)cc1`, the cell number change stood at 5.94%. In addition, under setting [1], the AC50 was 0.13 µM [falling, full curve, poor fit].

For the compound `COc1cc(OC)c(OC)cc1CN1CCc2ccccc2C1`, the cell number change was -78.2%. For the same compound, the AC50 under setting [2] is 20.6 µM [falling, partial curve]. The AC50 under setting [1] is 29.1 µM [falling, single point].

For `Cc1ccc(NC(=O)c2cccc(C(F)(F)F)c2)cc1NC(=O)c1[nH]cnc1C(N)=O`, under setting [1], the half-maximal activity concentration (AC50) is 0.00461 µM [falling, full curve, poor fit].

Consider `O=C(NC1CCCCC1)c1n[nH]c2c1CC(c1ccccc1)CC2` (stereo not drawn), for which the cell number change is -64.5%. The AC50 under setting [2] is 18.4 µM [falling, partial curve].

Consider `CNC(=S)Nc1ccc(Cc2ccncc2)cc1`, for which the cell number change worked out at 3.7%. Moreover, under setting [2], the concentration at half-maximal activity (AC50) is 6.51 µM [rising, single point].

As for `COc1ccc(C(=O)Nc2ccccc2C(=O)NC(C)C)cc1OC`, the AC50 under setting [2] is 6.51 µM [rising, partial curve] and the AC50 under setting [1] was 1.16 µM [rising, full curve].

In the case of `CCOc1ccc(N(C)S(=O)(=O)c2cnc[nH]2)cc1`, the cell number change was -9.89%. For the same compound, the AC50 under setting [1] is 6.51 µM [rising, single point].

With `CCOc1ccccc1-n1c(CNc2ccc(F)cc2)nnc1SCC(=O)NCc1ccco1`, the cell number change was -32.6%. In addition, the AC50 under setting [2] was 13 µM [falling, partial curve].

As for `COc1ccc(-n2c(-c3ccc(Cl)cc3)c[n+]3c2CCc2ccccc2-3)cc1`, the cell number change was -71.2%. The AC50 under setting [2] was 29.1 µM [falling, single point]. Further, the concentration at half-maximal activity (AC50) under setting [1] is 29.1 µM [falling, single point].

As for `O=C(NCc1ccccc1)C1=C[C@H](c2coc3ccccc3c2=O)C[C@H](OCc2ccc(CO)cc2)O1`, the cell number change is -19.4%.

For the compound `Cc1nonc1NC(=O)OCCN1CCOC1=O`, the cell number change was determined as 18.1%. Besides, the concentration at half-maximal activity (AC50) under setting [1] is 29.1 µM [rising, single point].

With `O=C1CN(C(=O)COC(=O)c2ccccc2NC(=O)c2ccco2)c2ccccc2N1`, the AC50 under setting [1] is 18.4 µM [rising, partial curve].

Regarding `CCOC(=O)[C@H]1[C@H]2COc3cc(OC)ccc3[C@@H]2N2C(=O)c3cc(F)c(F)cc3NC(=O)[C@@]12C`, the AC50 under setting [1] was 0.731 µM [falling, partial curve, poor fit].

Regarding `CCCCNC(=O)Cn1c(=O)c2c(ncn2CC)n(Cc2ccccc2)c1=O`, the cell number change was -58.5%. For the same compound, under setting [2], the half-maximal activity concentration (AC50) was 0.517 µM [falling, full curve]. Under setting [1], the AC50 is 4.61 µM [falling, partial curve].

On to `Nc1ncnc2nc(Sc3ccc(Cl)cc3)[nH]c12`, for which the cell number change is -3.3%.

As to `COCc1cc(=O)[nH]c(SCCS(=O)(=O)c2ccc(C)cc2)n1`, the cell number change came to 13.6%. Also, the half-maximal activity concentration (AC50) under setting [2] was 4.11 µM [falling, single point]. Moreover, under setting [1], the AC50 is 6.51 µM [falling, single point].

Values taken from PubChem BioAssay AID2685 (National Center for Advancing Translational Sciences (NCATS), 2010).
